Consider 13 compounds from the supplement of paper PMC4604168 (melanoma cell lines).

The other results are listed elsewhere or left out. Many values rest on one well or one pass, so single values are uncertain.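 Imaging used 1,536-well plates; nuclei positive for cleaved PARP by antibody were divided by total DNA-stained nuclei to yield the apoptosis fraction. Doses for screening kept most cells viable, and cell lines differ markedly in resting and induced cleaved-PARP levels.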

The test has as its system SkMel28. Nature of the test: cleaved PARP positive nuclei fraction relative to DMSO control; melanoma cells; higher = more apoptosis. The note with it: library dose: low library concentration; 72 h.
Consider `CCCCCCCCc1ccc(CCC(N)(CO)CO)cc1` [fingolimod] + C=CCn1c(=O)c2cnc(Nc3ccc(N4CCN(C)CC4)cc3)nc2n1-c1cccc(C(C)(C)O)n1 [MK1775] (first compound 2 µM, partner dose 0.02 µM), for which the “cleaved PARP positive nuclei fraction” value came out at 62.7%.

Regarding `CN(c1ncccc1CNc1nc(Nc2ccc3c(c2)CC(=O)N3)ncc1C(F)(F)F)S(C)(=O)=O` + Nc1nc(F)nc2c1ncn2[C@@H]1O[C@H](CO)[C@@H](O)[C@@H]1O [fludarabine] (first compound 0.08 µM, partner dose 0.2 µM), the “cleaved PARP positive nuclei fraction” value amounted to 235%.

Take `C[C@@H](N)c1ccc(C(=O)Nc2ccnc3[nH]ccc23)cc1` + CS(=O)(=O)CCNCc1ccc(-c2ccc3ncnc(Nc4ccc(OCc5cccc(F)c5)c(Cl)c4)c3c2)o1 [lapatinib] (first compound 0.4 µM, partner dose 0.8 µM): the “cleaved PARP positive nuclei fraction” value was found to be 105%.

With `NC(=O)c1ccc(N(C(N)=O)c2c(F)cccc2F)nc1-c1ccc(F)cc1F` + CS(=O)(=O)CCNCc1ccc(-c2ccc3ncnc(Nc4ccc(OCc5cccc(F)c5)c(Cl)c4)c3c2)o1 [lapatinib] (first compound 0.4 µM, partner dose 0.8 µM), the “cleaved PARP positive nuclei fraction” value came out at 92.6%.

Regarding `CS(=O)(=O)c1ccc(C(=O)Nc2ccc(Cl)c(-c3ccccn3)c2)c(Cl)c1` [vismodegib] + O=C(O)c1ccc2c(c1)nc(Nc1cccc(Cl)c1)c1ccncc12 [CX4945] (first compound 1 µM, partner dose 0.4 µM), the “cleaved PARP positive nuclei fraction” value worked out at 65.7%.

With `CC(=O)O[C@@]12CO[C@@H]1C[C@H](O)[C@@]1(C)C(=O)[C@H](O)C3=C(C)[C@@H](OC(=O)[C@H](O)[C@@H](NC(=O)OC(C)(C)C)c4ccccc4)C[C@@](O)([C@@H](OC(=O)c4ccccc4)[C@H]21)C3(C)C` [Docetaxel] + CCc1ccc(CCOc2ccc(CC3SC(=O)NC3=O)cc2)nc1 [pioglitazone] (first compound 0.0001 µM, partner dose 2 µM), the “cleaved PARP positive nuclei fraction” value is 257%.

As for `Cn1cnc2c(F)c(Nc3ccc(Br)cc3Cl)c(C(=O)NOCCO)cc21` [selumetinib] + Cn1c(Nc2ccc(C(F)(F)F)cc2)nc2cc(Oc3ccnc(-c4ncc(C(F)(F)F)[nH]4)c3)ccc21 [CHIR265] (first compound 0.015 µM, partner dose 0.08 µM), the “cleaved PARP positive nuclei fraction” value is 686%.

With `NC1(c2ccc(-c3nc4ccn5c(=O)[nH]nc5c4cc3-c3ccccc3)cc2)CCC1` + c1cc(-c2cnn3cc(-c4ccc(OCCN5CCCCC5)cc4)cnc23)ccn1 [Dorsomorphin] (first compound 0.4 µM, partner dose 0.4 µM), the “cleaved PARP positive nuclei fraction” value was found to be 212%.

In the case of `CC(=O)O[C@@]12CO[C@@H]1C[C@H](O)[C@@]1(C)C(=O)[C@H](O)C3=C(C)[C@@H](OC(=O)[C@H](O)[C@@H](NC(=O)OC(C)(C)C)c4ccccc4)C[C@@](O)([C@@H](OC(=O)c4ccccc4)[C@H]21)C3(C)C` [Docetaxel] + CC(=O)c1c(C)c2cnc(Nc3ccc(N4CCNCC4)cn3)nc2n(C2CCCC2)c1=O [palbociclib] (first compound 0.0001 µM, partner dose 0.04 µM), the “cleaved PARP positive nuclei fraction” value is 196%.

`COc1ccc(C2=N[C@@H](c3ccc(Cl)cc3)[C@@H](c3ccc(Cl)cc3)N2C(=O)N2CCNC(=O)C2)c(OC(C)C)c1` [Nutlin-3] + Nc1nc(F)nc2c1ncn2[C@@H]1O[C@H](CO)[C@@H](O)[C@@H]1O [fludarabine] (first compound 0.1 µM, partner dose 0.2 µM): the “cleaved PARP positive nuclei fraction” value turned out to be 92.2%.

As for `CCN(CC)CCNC(=O)c1c(C)[nH]c(/C=C2\C(=O)Nc3ccc(F)cc32)c1C` [sunitinib] + C=C(c1ccc(C(=O)O)cc1)c1cc2c(cc1C)C(C)(C)CCC2(C)C [Bexarotene] (first compound 0.4 µM, partner dose 2 µM), the “cleaved PARP positive nuclei fraction” value stood at 76.8%.

Turning to `NC(=O)c1ccc(N(C(N)=O)c2c(F)cccc2F)nc1-c1ccc(F)cc1F` + Cn1nnc2c(C(N)=O)ncn2c1=O [temozolomide] (first compound 0.4 µM, partner dose 2 µM), the “cleaved PARP positive nuclei fraction” value amounted to 43.6%.

`CC1(C)CCC(c2ccc(Cl)cc2)=C(CN2CCN(c3ccc(C(=O)NS(=O)(=O)c4ccc(N[C@H](CCN5CCOCC5)CSc5ccccc5)c(S(=O)(=O)C(F)(F)F)c4)cc3)CC2)C1` + CN(c1ncccc1CNc1nc(Nc2ccc3c(c2)CC(=O)N3)ncc1C(F)(F)F)S(C)(=O)=O [PF562271] (first compound 0.4 µM, partner dose 0.08 µM): the “cleaved PARP positive nuclei fraction” value amounted to 119%.
